Experimental data: PubChem BioAssay AID686937 (Drosophila RNAi Screening Center, 2013)
Assay: 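Genes whose loss weakens secretory pathway function in fly cells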 (primary screen). Cell system: Drosophila S2 cells expressing secreted horseradish peroxidase. Reagent: long dsRNA against Drosophila genes. Duration: about 5.5 days (5 days dsRNA, then 12 h reporter induction). Conditions: reporter expression induced after 5 days of dsRNA, read 12 h later; inducer not stated. Read-out: 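Chemiluminescent measurement of peroxidase in the medium 12 h after reporter induction, following 5 days of dsRNA, given as a z-score per plate; higher means more secretion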. Direction: z-score: higher = more reporter secreted into medium.
The screen tested about 23,000 reagents; this is a random part of those that have a named target and a result. 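Reduced-secretion tags in replicate 1 do not always agree with the z-scores; no criterion for assigning the tags was given.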 A plus sign joins genes that one reagent is predicted to hit. Not given: the amount of reagent.

z-score, replicate 1	z-score, replicate 2	z-score, replicate 3	z-score, replicate 4	phenotype, replicate 1	gene	amplicon
0.38	0.08				fig	DRSC16270
-0.04	0.2				Ugt37B1	DRSC03225
0.04	-0.29				CG13177	DRSC06303
-3.45	-4.16			reduced secretion	RpL12	DRSC04344
-0.67	-0.41			reduced secretion	CG32192	DRSC21760
-2.28	-1.49			reduced secretion	MED1	DRSC11808
0	0.2				CG1774	DRSC15258
0.22	0.32				CG7907	DRSC16339
-1.05	-0.86				Iswi	DRSC07446
0.22	0.09				CG31633	DRSC02275
-6.53	-7.11			reduced secretion	deltaCOP	DRSC18760
-0.17	-0.17				CG4101	DRSC10400
-0.84	-0.45				Nup154	DRSC03384
0.24	0.21				Ctu2	DRSC02024
0.57	0.02				Cpr60D	DRSC04492
0.44	0.34				Alms1b + Alms1a	DRSC18559
0.36	0.26				CAH15	DRSC04534
0.63	0.47				Top3beta	DRSC18724
0.32	0.25				CG32447	DRSC11732
-0.49	-0.47				CG32447	DRSC11805
0.3	0.33				CG14102	DRSC10103
0.39	0.32				Cln7	DRSC11005
-1.01	0.15	0.35	-0.78	reduced secretion	Ns3	DRSC18607
0.21	0.33				CG14642	DRSC12228
0	0.15				CG4036	DRSC02735
0.16	0.44				CG1806	DRSC19787
0.32	0.38				CG1662	DRSC19754
0.12	0.23				CG12863	DRSC06203
0.25	-0.1				Pros28.2 (retired record)	DRSC16800
-0.31	0.32				Rsph9	DRSC01594
0.3	0.09				CG7943	DRSC16351
-0.06	-0.03				CG6908	DRSC16131
0.33	0.56				CG18545	DRSC15343
-0.15	-0.12				Usp30	DRSC18265
0.23	0.11				CG11279	DRSC09837
0.28	0.4				CG5335	DRSC06931
-3.19	0.59			reduced secretion	CG12099	DRSC08253
0.29	0.43				Prosbeta4R2	DRSC00503
-0.45	0.06				Decay	DRSC16930
0.43	0.28				CG13898	DRSC08368
0.04	0.32				xmas-1 (retired record)	DRSC20386
0.07	0.21				KCNQ	DRSC06121
0.12	0.23				KCNQ	DRSC06230
0.07	0.1				Uba4	DRSC02194
0.35	0.24				IPIP	DRSC02164
-2.45	-1.24				CG10660	DRSC09769
0.16	0.37				CG5250	DRSC15752
0.24	0.25				Ca-alpha1D	DRSC03284
0.68	0.35				Try29F	DRSC03466
0.06	-1.13				CG3847	DRSC17444
0.11	0.21				CG3847	DRSC18327
0.28	0.28				CG13708	DRSC08317
-0.01	0.41				retinin	DRSC09940
0.35	0.11				CR9337	DRSC03212
0.39	0.38				Svip	DRSC08982
0.11	0.07				Dph4	DRSC12318

A run of entries of the results above, for reference:
z-score, replicate 1	z-score, replicate 2	z-score, replicate 3	z-score, replicate 4	phenotype, replicate 1	gene	amplicon
-1.01	0.15	0.35	-0.78	reduced secretion	Ns3	DRSC18607
0.21	0.33				CG14642	DRSC12228
0	0.15				CG4036	DRSC02735
0.16	0.44				CG1806	DRSC19787
0.32	0.38				CG1662	DRSC19754
0.12	0.23				CG12863	DRSC06203
0.25	-0.1				Pros28.2 (retired record)	DRSC16800
-0.31	0.32				Rsph9	DRSC01594
